Assay results reported in article PMC7819943, “Rice protein-binding microarrays: a tool to detect cis-acting elements near promoter regions in rice”.
The other results are listed elsewhere or left out.

The chains behind the UniProt entries cited, without tags or fusion partners.
UniProt Q0JBA9, entry or part of it: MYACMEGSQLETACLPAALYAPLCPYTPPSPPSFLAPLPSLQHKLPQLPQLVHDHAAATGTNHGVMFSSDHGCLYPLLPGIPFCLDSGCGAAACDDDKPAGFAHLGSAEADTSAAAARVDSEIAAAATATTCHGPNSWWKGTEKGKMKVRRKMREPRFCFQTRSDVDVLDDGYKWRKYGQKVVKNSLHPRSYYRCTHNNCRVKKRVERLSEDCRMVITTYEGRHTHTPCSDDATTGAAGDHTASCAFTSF

The sequences below were run against OsWRKY34 (Oryza sativa, UniProt Q0JBA9 1-250) (assay: protein-binding microarray (RPBM); PBS, 2% BSA, 51.3 ng/ul salmon testes DNA, 50 uM zinc acetate, 200 nM TF, 25 C, 1 h; high values mean tight binding). Conditions: protein: recombinant; tags: N-terminal polyhistidine and DsRed monomer fusion (pET32a); label: CyDye5-dUTP incorporated in the synthesized complementary strand; 3' TTTTT single-stranded linker to array surface; dsDNA, one strand shown.
Summary of the method: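 Using Ni–NTA, transcription factors fused N-terminally to polyhistidine and DsRed were purified after expression in E. coli BL21-CodonPlus. These were incubated at 200 nM with a blocked, double-stranded custom Agilent array for 1 h at 25 °C in a buffer containing 50 µM zinc acetate, and the array was washed. The binding signal is per-feature fluorescence intensity (arbitrary units) on an Axon 4000B scanner.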

| Sequence | binding signal |
| --- | --- |
| ACGCCGTTGACTTTTTAAAATATGTTTGACCGTTTATCTTCGGAGTCACCTAGTGCAG | 45700 fluorescence intensity (a.u.) |
| TGAGACTTGAGAATTGGATTTATCAGTTTGAGGGGTTTTTCGGAGTCACCTAGTGCAG | 9720 fluorescence intensity (a.u.) |
| GAGGGGAGGGAGAGGTCGGAGATGGTTACCGGTGGGGAAGCGGAGTCACCTAGTGCAG | 12300 fluorescence intensity (a.u.) |
| AGCTGCTCTTGCTCTTCCTGCTCCGCCGTCACCTCCACCACGGAGTCACCTAGTGCAG | 9260 fluorescence intensity (a.u.) |
| TTGCTTATTCCTCTTGTAATCTGTGGTTTTCTCCATATAACGGAGTCACCTAGTGCAG | 11200 fluorescence intensity (a.u.) |
| GTCCTCGCCGTGTCGTTTCCCCAACCGCCGCGCCGCTTCGCGGAGTCACCTAGTGCAG | 8280 fluorescence intensity (a.u.) |
| GATTGGTGGGAATTATATATGTGGTCCAATTGGCTCTTTTCGGAGTCACCTAGTGCAG | 10100 fluorescence intensity (a.u.) |
| GTGGGAGCAAGTTTGGGGCACTTCTTGGAGGCTAGATTGTCGGAGTCACCTAGTGCAG | 8500 fluorescence intensity (a.u.) |
| TAACATTGATTGTTATGTCACTTGTCTGTGGATCAACTCTCGGAGTCACCTAGTGCAG | 9060 fluorescence intensity (a.u.) |
| AACATTCTTCTCCTTTTCTTCTTCTTCCTCCTCTCGTCGACGGAGTCACCTAGTGCAG | 9210 fluorescence intensity (a.u.) |
| CTCCGCCTCATTATAAGTACAATCATAGGTTTTCACGTCACGGAGTCACCTAGTGCAG | 10200 fluorescence intensity (a.u.) |
| TGTCAGTTACTTCCAAGTTGCTGTCCTTTAGGTCTCTTCTCGGAGTCACCTAGTGCAG | 8140 fluorescence intensity (a.u.) |
| GACCCACGACGCCAACTTCGCCACCAGGCCCAGGCTCCTCCGGAGTCACCTAGTGCAG | 8820 fluorescence intensity (a.u.) |
| AGAGTACTAATTGTTCTATCAATCACTTTTCATTCAAATTCGGAGTCACCTAGTGCAG | 8040 fluorescence intensity (a.u.) |
| CTGTTGGTCGTCTCCTCTCTATGTCAGCCGCACCAAGGTGCGGAGTCACCTAGTGCAG | 8050 fluorescence intensity (a.u.) |
| GATTGTTGCATGTGTATACCTTATAGTGAAAAGTGTTTTCCGGAGTCACCTAGTGCAG | 9300 fluorescence intensity (a.u.) |
| TGCTGTCCTTCCCACCATTGCTCTGCAACCTGCCGTCACCCGGAGTCACCTAGTGCAG | 8330 fluorescence intensity (a.u.) |
| TTGTAGTGTGCCCGATCTGCGAGTATCCTGGTATTGTGTACGGAGTCACCTAGTGCAG | 9820 fluorescence intensity (a.u.) |
| CCCCGCGTCTCTTTTCCGCACCCATCTGCTGCAGCTGCGCCGGAGTCACCTAGTGCAG | 8780 fluorescence intensity (a.u.) |
| TCGATTTTTTTTGTGTTTTTTTTTGCGTGCGGGCGGTATTCGGAGTCACCTAGTGCAG | 10900 fluorescence intensity (a.u.) |
| ATTCAATTCTATCATATCCTTATCCATCATGTCGTTCATTCGGAGTCACCTAGTGCAG | 9200 fluorescence intensity (a.u.) |
| GGTTGACTTTACTTCTTTGGGCCTCTCAGATATGTTCTTTCGGAGTCACCTAGTGCAG | 11400 fluorescence intensity (a.u.) |
| GATGGTTGGGGATGAGCTTGGTAGCCATATGGCTATCTCGCGGAGTCACCTAGTGCAG | 8110 fluorescence intensity (a.u.) |
| TAATGTTCCACAGCTAATTACGTATTTTTTTGAGTGTCCTCGGAGTCACCTAGTGCAG | 8640 fluorescence intensity (a.u.) |
| CTTCTAATTTTTTCGTCACTTACACAGAAACATTTAACTTCGGAGTCACCTAGTGCAG | 8220 fluorescence intensity (a.u.) |
| GTTCCTCTTGCTGCTATTCATGTCATGATATCACAACTCACGGAGTCACCTAGTGCAG | 9860 fluorescence intensity (a.u.) |
| AGACGAACGGTCAAACATGTTTAAAAAAGTCAACAGCGTTCGGAGTCACCTAGTGCAG | 10800 fluorescence intensity (a.u.) |

5 entries from above, reformatted.
Sequence	binding signal
GTCCTCGCCGTGTCGTTTCCCCAACCGCCGCGCCGCTTCGCGGAGTCACCTAGTGCAG	8280 fluorescence intensity (a.u.)
GATTGGTGGGAATTATATATGTGGTCCAATTGGCTCTTTTCGGAGTCACCTAGTGCAG	10100 fluorescence intensity (a.u.)
GTGGGAGCAAGTTTGGGGCACTTCTTGGAGGCTAGATTGTCGGAGTCACCTAGTGCAG	8500 fluorescence intensity (a.u.)
TAACATTGATTGTTATGTCACTTGTCTGTGGATCAACTCTCGGAGTCACCTAGTGCAG	9060 fluorescence intensity (a.u.)
AACATTCTTCTCCTTTTCTTCTTCTTCCTCCTCTCGTCGACGGAGTCACCTAGTGCAG	9210 fluorescence intensity (a.u.)

Continued:

| Sequence | binding signal |
| --- | --- |
| TCATAATTTACATGTAAACTGTGTAATTGTTTTTTTTCACCGGAGTCACCTAGTGCAG | 8370 fluorescence intensity (a.u.) |
| CCTCTCGTTCCTCCGTGTGGTTTCCGGCATGTATATATAACGGAGTCACCTAGTGCAG | 10200 fluorescence intensity (a.u.) |
| CCCCGCCCCAAATATTCTCTCGCATTCGCGTTCCCACCGCCGGAGTCACCTAGTGCAG | 8280 fluorescence intensity (a.u.) |
| GTGGTGTATGTATACGTCTGTGTTGTAATCGTATGAAAATCGGAGTCACCTAGTGCAG | 8570 fluorescence intensity (a.u.) |
| GTCTCCGAGTCTTATCCGCTCAACGCGGTCAGTACGCGCGCGGAGTCACCTAGTGCAG | 8250 fluorescence intensity (a.u.) |
| ACTAACATTCGGTGGGGTTTTTGTAATTTTCCCAACTTCACGGAGTCACCTAGTGCAG | 8380 fluorescence intensity (a.u.) |
| CCACCCGCTGTCTCTGCTGGACTCCACTTTCTCGCCTCTACGGAGTCACCTAGTGCAG | 11700 fluorescence intensity (a.u.) |
| GCGCCCTAACAACCCACCCCGCAAGTCGGCAACCCTAGCCCGGAGTCACCTAGTGCAG | 9480 fluorescence intensity (a.u.) |
| GGGGACATGAGGTGGGCACGTGAGCGAGGGGCACATCTGTCGGAGTCACCTAGTGCAG | 8900 fluorescence intensity (a.u.) |
| TGAAATTTCAACTTGATCCCATCCATGCTCTTACCGTCATCGGAGTCACCTAGTGCAG | 8350 fluorescence intensity (a.u.) |
| TACGTGGCGTGAAATCTCTGATGTGGGAGGCTGGGGTTGACGGAGTCACCTAGTGCAG | 10500 fluorescence intensity (a.u.) |
| TTAATTCTCATGCACTTTTTCTTTGCTTTCTCTATATGACCGGAGTCACCTAGTGCAG | 14100 fluorescence intensity (a.u.) |
| ATTTGCTTAATTCTTGTCTACTTGACCTCCCTGACATATTCGGAGTCACCTAGTGCAG | 8180 fluorescence intensity (a.u.) |
| AATCCTAACATTACACTTCTTAATCTTGCATCTAATTTTCCGGAGTCACCTAGTGCAG | 9270 fluorescence intensity (a.u.) |
| ACCATTTTATAAGCCATTTTCTTGACACCTGCTTTGTACGCGGAGTCACCTAGTGCAG | 10200 fluorescence intensity (a.u.) |
| TTCAGTGGGGTTTTCGTGGGGTCTCTCATAGTCTTCACGCCGGAGTCACCTAGTGCAG | 9060 fluorescence intensity (a.u.) |
| CCGCCGGCCGCCGTCCTCGCCATCTCCGCCGGCCGCCGTCCGGAGTCACCTAGTGCAG | 8440 fluorescence intensity (a.u.) |
| TTCTTCATTATCTCTATTTGTGGTGCTATTGGTTTATTTTCGGAGTCACCTAGTGCAG | 8980 fluorescence intensity (a.u.) |
| TTGCGTTGACACTTGAACACGCTTCGCTTTGGTTTTGGTCCGGAGTCACCTAGTGCAG | 8340 fluorescence intensity (a.u.) |
| GGCCCATTCTTCTCCGACCAACAATACCTGCGCTTTCCATCGGAGTCACCTAGTGCAG | 11800 fluorescence intensity (a.u.) |
| CGTACTTCTAAATCTTTTCCATTTCCTTCCCTTTGGAAAACGGAGTCACCTAGTGCAG | 8440 fluorescence intensity (a.u.) |
| GGGTTCAGAAATAGGTGGTGGATAACAATCTGCAGCAGAACGGAGTCACCTAGTGCAG | 8420 fluorescence intensity (a.u.) |
| TTGGGGTTGGACCGGTTTTCATCTGTTCTTGTCCTGAGAGCGGAGTCACCTAGTGCAG | 10800 fluorescence intensity (a.u.) |
| ATCAGCATTTGCATCACCTTCATCAATCCTCTGCTTGGTACGGAGTCACCTAGTGCAG | 9350 fluorescence intensity (a.u.) |
| AAAATTTAAATTTTGACTTTTGCTTATTGATTTTTAGTTCCGGAGTCACCTAGTGCAG | 10200 fluorescence intensity (a.u.) |
| ACAAATTGCGCGCTCCACGGCCTATATTCGGCCCAACCTGCGGAGTCACCTAGTGCAG | 9760 fluorescence intensity (a.u.) |
| GACTCTGAACCATTTCCATCTGGATTCAGGTTTATGCTGTCGGAGTCACCTAGTGCAG | 8130 fluorescence intensity (a.u.) |
